According to patent US20250042957A1:
No constants are given. Whether binding was seen depends on the method and setting. Some entries that bind do so weakly or less than the wild type.

Protein sequences, listed by entry. Tags and fused reporters are not part of them. Lines headed by an entry give the natural chain unless they say otherwise; changes in a name come on top. Chains listed by the source or under a name are the forms on record and can include a tag or linker.
VEGF165 (P15692, form named): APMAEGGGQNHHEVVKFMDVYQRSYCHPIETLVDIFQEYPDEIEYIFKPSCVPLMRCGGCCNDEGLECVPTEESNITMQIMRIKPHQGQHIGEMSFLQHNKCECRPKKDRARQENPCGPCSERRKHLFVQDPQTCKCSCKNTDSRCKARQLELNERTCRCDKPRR

Experiments:
Switchdrug DARPin 13-3 = experiment: HTRF: 20 nM Switchdrug DARPin with titrated soluble VEGF; read-out is the construct's binding to 1 nM biotinylated scCD3εγ (release of the α-CD3 binder)
Switchdrug DARPin 15-3 = experiment: as above
Switchdrug DARPin 17-3 [1] = experiment: as above
Switchdrug DARPin 18-3 [2] = experiment: as above
Switchdrug DARPin 17-1 = experiment: ELISA: 10 nM Switchdrug DARPin 17-1 pre-incubated with titrated soluble VEGF; read-out is the construct bound to plate-bound biotinylated scCD3εγ (release of the α-CD3 binder)
Switchdrug DARPin 17-3 [3] = experiment: ELISA: 10 nM Switchdrug DARPin 17-3 pre-incubated with titrated soluble VEGF; read-out is the construct bound to plate-bound biotinylated scCD3εγ (release of the α-CD3 binder)
Switchdrug DARPin 18-3 [4] = experiment: ELISA: 100 nM Switchdrug DARPin 18-3 pre-incubated with titrated soluble VEGF; read-out is the construct bound to plate-bound biotinylated scCD3εγ (release of the α-CD3 binder)

binding (Switchdrug DARPin 13-3): binds
binding (Switchdrug DARPin 15-3): binds
binding (Switchdrug DARPin 17-3 [1]): binds
binding (Switchdrug DARPin 18-3 [2]): binds
binding (Switchdrug DARPin 17-1): binds
binding (Switchdrug DARPin 17-3 [3]): binds
binding (Switchdrug DARPin 18-3 [4]): binds
Substance: VEGF165 (from UniProt P15692 27-191) (ligand)
